No constants are given. Whether binding was seen depends on the method and setting. Some binding calls cover weakened binding; strength is not graded here. Tags and fused reporters may be left off the sequences shown.
B1: S. aureus PBP1 (bacterial two-hybrid fusion) (protein, UniProt Q2FZ94 1-744)
chain: MAKQKIKIKKNKIGAVLLVGLFGLLFFILVLRISYIMITGHSNGQDLVMKANEKYLVKNAQQPERGKIYDRNGKVLAEDVERYKLVAVIDKKASANSKKPRHVVDKKETAKKLSTVINMKPEEIEKRLSQKKAFQIEFGRKGTNLTYQDKLKIEKMNLPGISLLPETERFYPNGNFASHLIGRAQKNPDTGELKGALGVEKIFDSYLSGSKGSLRYIHDIWGYIAPNTKKEKQPKRGDDVHLTIDSNIQVFVEEALDGMVERYQPKDLFAVVMDAKTGEILAYSQRPTFNPETGKDFGKKWANDLYQNTYEPGSTFKSYGLAAAIQEGAFDPDKKYKSGHRDIMGSRISDWNRVGWGEIPMSLGFTYSSNTLMMHLQDLVGADKMKSWYERFGFGKSTKGMFDGEAPGQIGWSNELQQKTSSFGQSTTVTPVQMLQAQSAFFNDGNMLKPWFVNSVENPVSKRQFYKGQKQIAGKPITKDTAEKVEKQLDLVVNSKKSHAANYRIDGYEVEGKTGTAQVAAPNGGGYVKGPNPYFVSFMGDAPKKNPKVIVYAGMSLAQKNDQEAYELGVSKAFKPIMENTLKYLNVGKSKDDTSNAEYSKVPDVEGQDKQKAIDNVSAKSLEPVTIGSGTQIKAQSIKAGNKVLPHSKVLLLTDGDLTMPDMSGWTKEDVIAFENLTNIKVNLKGSGFVSHQSISKGQKLTEKDKIDVEFSSENVDSNSTNNSDSNSDDKKKSDSKTDKDKSD

Sequences of proteins named here, by UniProt entry; tags and fusion partners are left off. A change or cut given only in a name is not applied to a line headed by its entry.
UniProt Q2FXK8, whole entry: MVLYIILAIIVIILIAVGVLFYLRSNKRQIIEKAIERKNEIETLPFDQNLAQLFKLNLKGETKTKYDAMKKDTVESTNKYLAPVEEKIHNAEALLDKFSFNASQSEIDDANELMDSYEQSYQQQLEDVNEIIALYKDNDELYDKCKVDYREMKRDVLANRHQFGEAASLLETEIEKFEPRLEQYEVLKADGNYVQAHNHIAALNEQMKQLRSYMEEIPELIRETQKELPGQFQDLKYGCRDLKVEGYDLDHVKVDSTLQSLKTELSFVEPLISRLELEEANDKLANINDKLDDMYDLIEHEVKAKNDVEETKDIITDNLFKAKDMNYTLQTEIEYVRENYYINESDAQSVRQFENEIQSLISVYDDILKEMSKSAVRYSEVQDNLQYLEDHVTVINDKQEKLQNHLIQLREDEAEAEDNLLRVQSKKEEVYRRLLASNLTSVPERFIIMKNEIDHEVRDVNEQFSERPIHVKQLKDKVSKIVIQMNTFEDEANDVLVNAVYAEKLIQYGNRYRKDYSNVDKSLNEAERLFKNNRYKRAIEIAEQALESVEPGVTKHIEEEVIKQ

Legend:
DivIB (S. aureus) = DivIB (S. aureus) (UniProt Q2FZ91); assay: two-hybrid
EzrA (S. aureus) = EzrA (S. aureus) (UniProt Q2FXK8); assay: two-hybrid

Molecule	binding (DivIB (S. aureus))	binding (EzrA (S. aureus))
T25-PBP1ΔPASTA (S. aureus PBP1 without the PASTA domains, M1-S595) (from UniProt Q2FZ94 1-595) (domain or fragment)	binds	binds
B1	binds	binds

— doi:10.1101/2021.10.07.463504
